# Percent effect of library compounds

Measurements from “University of Dundee, Small-Polar-MMV Screening Library” (2021), ChEMBL document CHEMBL3988442.

Results are given as percent effect.
The controls that fix the scale are not given in the record; negative values are as filed.
This is an unselected part of the compounds tested.
Two or more numbers in one place are separate tests of the same structure; such repeats can differ widely.

A: 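Whole-cell growth test on Mycobacterium tuberculosis, read after 4 days in a medium based on cholesterol and the lipid DPPC; the read-out is not stated. Compounds at 50 µM. Direction is inferred from retests: higher values go with more growth inhibition. About 69,000 compounds were tested under these conditions; 0.54% (about 370) showed 50% or more at least once.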
B: 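Growth of Mycobacterium tuberculosis over 3 days (7H9 medium with glucose and tyloxapol); the read-out is not stated. Tested at 50 µM. The record gives no direction; compounds that gave an IC50 in retests scored well above the rest, so higher reads as more growth inhibition. Of about 69,000 compounds tested this way, about 760 (1.1%) reached 50% or more in at least one test.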

* [H][C@]12CC[C@@H](Nc3cccnn3)[C@@]1([H])CN(Cc1c[nH]c3ccccc13)C2 | A: 21.62% and 14.17%; B: 23.19%
* CCC(O)(CNCc1ccncc1)c1ccc(Br)cc1 (stereo not drawn) | A: 11.07%; B: 29.01%
* O=C(O)C(F)(F)F.[H][C@@]12CN(Cc3ccccc3)CCC[C@]1(C(=O)O)CN(c1ncccn1)C2 | A: -3.086%; B: -19.79%
* Oc1cc(CNCCCN2CCCC2)nc2ccc(F)cc12 | A: 8.117%; B: -1.485% and 6.375%
* CSCC[C@@H](CO)Nc1ccc(-c2nc(-c3ccccc3C)no2)cn1 | A: 4.275% and 12.91%; B: 25.62% and 10.2%
* O=C(O)C(F)(F)F.O=C(c1ccco1)N1CCCC2(CN(Cc3cccs3)CCO2)C1 (stereo not drawn) | A: -9.921%; B: 2.941% and 12.88%
* NC(=O)CSCC(=O)N1CCc2cc(Cl)cc(Cl)c2C1 | A: -15.95%; B: 45.49%
* CSC(C)C(=O)N1CCCN(Cc2cscn2)CC1 (stereo not drawn) | A: -23.21%; B: -22.41%
* Clc1cccc(-n2cnnn2)c1N1CCCC1 | A: -4.706%; B: 14.1%
* CCOCC(O)CN1CCN(C(=O)Cc2cccc(C)c2)CC1 (stereo not drawn) | A: -2.099%; B: -15.27%
* O=S(=O)(c1cccnc1)N1CCN(Cc2nc(-c3cccs3)cs2)CC1 | A: 8.653%; B: 27.2%
* C[C@H]1CN(C(=O)N(C)C)C[C@@]12CCN(c1ccsc1)C2=O | A: -4.777% and 1.815%; B: -32.32%
* COC(=O)CCNC(=O)c1nnn(-c2ccccc2)c1C(F)(F)F | A: 14.96%; B: 19.85%
* [H][C@@]12COC[C@]1([H])[C@@H](OC)CN2C(=O)c1ccnnc1 | A: -16.5%; B: -4.832%
* Cc1noc(C2CCN(Cn3cc(Cl)cn3)CC2)n1 | A: -3.867%; B: 2.002%
* CCSCc1nc(O)c2nnn(C3CCN(Cc4ccoc4)CC3)c2n1 | A: -30.65% and -2.454%; B: -20.9%
* CC(Cn1cccn1)NCc1ccc(OCc2ccncc2)cc1 (stereo not drawn) | A: 6.172%; B: 14.28%
* Cc1cccc(C(=O)N2CCc3c(COCC4CC4)cncc3C2)n1 | A: -12.5%; B: -8.335%
* CC(C)N1CCc2[nH]nc(C(=O)N3CCOCC3)c2C1.O=C(O)C(F)(F)F.O=C(O)C(F)(F)F | A: -14.87%; B: -13.12%
* O=C(O)C(F)(F)F.O=C(O)C(F)(F)F.c1cncc(COCc2n[nH]c3c2CN(Cc2ccco2)C3)c1 | A: 13.69%; B: -3.403% and -15.14%
* [H][C@]12CN(CC3CCC3)C[C@@]1(C(=O)O)CN(C(=O)c1cnccc1C)C2 | A: 15.72%; B: 6.516%
* CC(c1cccnc1)N1CCN(CCc2ccccn2)CC1 (stereo not drawn) | A: -0.5683%; B: 34.21%
* Cc1nn(C)c(C)c1C(C(=O)O)N1CCc2ccccc2C1 (stereo not drawn) | A: -21.39%; B: -3.776%
* CC(=O)NC[C@@H]1C=C(C)[C@H](CC(=O)NCc2cccnc2)C[C@H]1C(C)C | A: -3.798%; B: -22.15% and -8.494%
* Cc1ccc(N2CCCN(C(=O)C(C(C)C)n3cncn3)CC2)nn1 (stereo not drawn) | A: 6.264%; B: 18.36%
* COc1ccc(C(C)N(C)Cc2c(C(C)(C)C)[nH]c3ncccc23)cc1 (stereo not drawn) | A: -14.77% and 2.126%; B: -17.93%
* O=C(CCc1ccncc1)NCc1csc(Br)c1 | A: 2.331%; B: -13.18%
* COc1cc(OC)cc(C(=O)NCc2nn(C)c3c2COCC3)c1 | A: 7.312%; B: 16.14%
* CCS(=O)(=O)NC1CCCN(c2cc(C)ccc2F)C1=O (stereo not drawn) | A: 0.5713%; B: 12.72% and -43.38%
* Cc1nc(-c2cccc(C(=O)N(C)CC(C)O)c2)cs1 (stereo not drawn) | A: -4.598%; B: 4.229% and 2.291%
* CN1CCC(N2CCCC(C(=O)N3Cc4ccccc4C3)C2)CC1 (stereo not drawn) | A: -16.96%; B: -30.44%
* O=C(NC1CC1)c1cc(NC(=O)N2CCSCC2)ccc1Cl | A: -11.43%; B: 25%
* O=C(NCCOc1ccc(Cl)cn1)Nc1nccs1 | A: 4.321% and 0.01786%; B: 8.821%
* Cc1cc(CNC(=O)c2ccno2)c(C)o1 | A: 4.663%; B: 6.356%
* COCC(C)N(C)C(=O)c1ccc2nncn2c1 (stereo not drawn) | A: -29.23%; B: -7.891%
* CCS(=O)(=O)N1CCc2cc(C(=O)N(C)C)c(NCC3CC3)nc2CC1 | A: -35.69%; B: -25.45%
* Cc1ccsc1CNC(=O)NC(C)c1ccc2c(c1)CCC(=O)N2 (stereo not drawn) | A: -10.3%; B: 19.64%

Repeated from the top, 3 entries:

| SMILES | A | B |
|---|---|---|
| `[H][C@]12CC[C@@H](Nc3cccnn3)[C@@]1([H])CN(Cc1c[nH]c3ccccc13)C2` | 21.62% and 14.17% | 23.19% |
| `CCC(O)(CNCc1ccncc1)c1ccc(Br)cc1` (stereo not drawn) | 11.07% | 29.01% |
| `O=C(O)C(F)(F)F.[H][C@@]12CN(Cc3ccccc3)CCC[C@]1(C(=O)O)CN(c1ncccn1)C2` | -3.086% | -19.79% |